Record: PubChem BioAssay AID1259272 (Sanger Institute, 2017)

Test: 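Find kinases needed for SW1116 growth and partners for drug combinations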 (primary screen)
System: SW1116 human colorectal cancer cells
Reagents: siRNA pool against human genes
Challenge: anchor drugs BYL719 (1 µM), cetuximab (5 µg/ml) or trametinib (10 nM), or DMSO vehicle; exposure length not given
Measured: 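Replicate-averaged viability versus control-pool wells, with a robust z-score for siRNA alone and a per-drug synergy score (BYL719, cetuximab, trametinib)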
Direction: viability z-score, no drug: higher = more cells remaining; strongly negative means essential gene
Rule for the call: 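Called essential if the drug-free knock-down gives a robust viability z-score below -3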
Meaning of the calls: active = essential (knock-down alone); inactive = no change
Shown is one part, drawn at random, of 794 reagents. In the full data, 7 (0.88%) were called active. 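Essential calls reflect knock-down without drug only, not synergy with drugs; drug exposure length not given.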 A number with no mark means an inactive call. Further read-outs or replicates are left out here. Not stated in the record: the amount of reagent, the time to read-out.

With MAP3K15, what was measured?
viability z-score, no drug: 0.842

With ITSN1, what does the deposit list?
viability z-score, no drug: 0.677

Which result is listed for PEAK1?
viability z-score, no drug: -1.51

How did the screen score SCYL1?
viability z-score, no drug: 0.842

With PRKX, what does the deposit list?
viability z-score, no drug: 0.722

Which result is listed for ITPKA?
viability z-score, no drug: -1.1

How did the screen score HK2?
viability z-score, no drug: -0.42

With PRKCH, what does the deposit list?
viability z-score, no drug: -0.455

With EPHB2, what was measured?
viability z-score, no drug: 0.842

A run of entries taken from the entries so far, for reference:
ITPKA | viability z-score, no drug: -1.1
HK2 | viability z-score, no drug: -0.42

Next reagents follow:
How did the screen score CHD4?
viability z-score, no drug: -0.727

For CKB, what was measured?
viability z-score, no drug: 0.842

For ULK4, what does the deposit list?
viability z-score, no drug: -1.3

With PI4KB, how do the results read?
viability z-score, no drug: 0.238

What did the screen give for WT1?
viability z-score, no drug: 0.842

What is on record for EPHA7?
viability z-score, no drug: 0.0124

For PFKM, what does the deposit list?
viability z-score, no drug: -0.851

What is on record for SKAP1?
viability z-score, no drug: 0.842

What did the screen give for GUCY2C?
viability z-score, no drug: 0.842

What did the screen give for CSNK2A1?
viability z-score, no drug: 0.842

What is on record for HK3?
viability z-score, no drug: 0.842

With PSTK, how do the results read?
viability z-score, no drug: 0.842

Which result is listed for ETNK2?
viability z-score, no drug: -1.15

With MED24, how do the results read?
viability z-score, no drug: 0.842

Which result is listed for TEC?
viability z-score, no drug: 0.609

For PIP5KL1, how do the results read?
viability z-score, no drug: -0.372

With DDR1, what does the deposit list?
viability z-score, no drug: 0.842

Which result is listed for LYN?
viability z-score, no drug: 0.842

With IGF1R, what was measured?
viability z-score, no drug: 0.842
